PubChem BioAssay AID504786 – Drosophila RNAi Screening Center, 2011
The deposit covers about 21,000 reagents; shown is a random part of those with a known target gene and a result. 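Primary screen; positive scores mean lost reporter signal, so the sign may be inverted from the usual convention.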 Names joined by + are all predicted targets of the reagent. Further read-outs or replicates are left out here.

- Assay: 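Knock-downs reducing HIF reporter induction by the iron chelator DFO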 (primary screen)
- Cell system: Drosophila S2 cells with a stable HIF luciferase reporter
- Reagent: long dsRNA against Drosophila genes, about 0.2 µg dsRNA per well of a 384-well plate
- Duration: three days of knock-down, then 20 h of DFO before reading
- Challenge: desferrioxamine (DFO) at 100 µM, an iron chelator that mimics hypoxia, for 20 h
- Measurement: 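Firefly luciferase driven by the mouse ldh-a hypoxia-response element, measured after 20 h of 100 µM DFO; z-scores per plate, higher means more signal lost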
- Scale: z-score: higher = stronger loss of HIF reporter signal

z-score, replicate 1, by gene and reagent
ppk11 (pickpocket 11): DRSC02737 -0.3
COX4L (Cytochrome c oxidase subunit 4-like): DRSC04841 0
emei: DRSC10897 -0.2
dgt1 (dim gamma-tubulin 1): DRSC15301 1.1
Meltrin: DRSC16274 -0.4
ATPsynF (ATP synthase, subunit F): DRSC04482 -0.1
CG10559: DRSC14255 -0.4
CG13723: DRSC10052 -0.2
Ugt316A1 (UDP-glycosyltransferase family 316 member A1): DRSC10376 -0.2
alpha-Cat (alpha Catenin): DRSC11917 -0.3
CG6583: DRSC02972 -0.3
pins (partner of inscuteable): DRSC17043 0
CG6553: DRSC07002 -0.1
CG6044: DRSC04522 -0.5
CG18666: DRSC02694 -0.2
Tpst (Tyrosylprotein sulfotransferase): DRSC18989 -0.3; DRSC19696 -0.2; DRSC19723 -0.5; DRSC19724 0.4
DUBAI (Deubiquitinating apoptotic inhibitor): DRSC07281 -0.3
LManV (Lysosomal alpha-mannosidase V): DRSC03223 -0.3
alrm (astrocytic leucine-rich repeat molecule): DRSC14436 0.1
CG34342: DRSC09756 -0.3
Tudor-SN (Tudor staphylococcal nuclease): DRSC08581 -0.2
GluRIID (Glutamate receptor IID): DRSC16723 -0.3
Best2 (Bestrophin 2): DRSC09712 -0.3
Nop56: DRSC14699 0.7
Cyp28d1 (Cytochrome P450 28d1): DRSC03298 -0.4
Atg8b (Autophagy-related 8b): DRSC14501 -0.2
CG17187: DRSC15181 -0.1
CG13123: DRSC02219 0.1
Ir11a (Ionotropic receptor 11a): DRSC19699 -0.3
CG7632: DRSC11842 -0.2
CG17528: DRSC07761 -0.3
CG34045: DRSC05787 0.1
CG11029: DRSC02119 -0.2
eIF3m (eukaryotic translation initiation factor 3 subunit m): DRSC07142 5.2
CG15107: DRSC06534 0.3
Cyp4g1 (Cytochrome P450 4g1): DRSC18459 -0.2
Pmm2 (Phosphomannomutase type 2): DRSC09780 -0.2
CG6138: DRSC02933 -0.2
jtb (jetboil): DRSC06868 -0.1
mAcon2 (Mitochondrial aconitase 2): DRSC15629 -0.3
CG14841: DRSC14965 -0.1
CG14400: DRSC02384 -0.3
CG10301: DRSC14226 0.1
E(spl)m5-HLH (Enhancer of split m5, helix-loop-helix): DRSC16695 -0.4
mRpL54 (mitochondrial ribosomal protein L54): DRSC04545 0.8
SerRS-m (Seryl-tRNA synthetase, mitochondrial): DRSC14096 0.1
mip40 (Myb-interacting protein 40): DRSC06541 -0.3
CG8028: DRSC20075 -0.4
CG14937: DRSC02419 0.1
CG7365: DRSC10824 -0.4
CG32284: DRSC08025 -0.3
Arpc4 (Actin-related protein 2/3 complex, subunit 4): DRSC02917 0.5
CG13920: DRSC08389 -0.2
CG11368: DRSC17778 -0.3
CG14416: DRSC18639 -0.2
bark (bark beetle): DRSC00635 -0.3
CG15196: DRSC19643 -0.2
CG34149: DRSC14537 -0.3
Larp4B (La-related protein 4B): DRSC08192 0.4
Pnn (Pinin): DRSC16415 -0.1
Z600: DRSC11317 -0.3
mei-217 + mei-218: DRSC20349 0
CG12594: DRSC14532 -0.4
Art2 (Arginine methyltransferase 2): DRSC00627 -0.3
CG3308: DRSC15474 -0.2
spz5 (spatzle 5): DRSC08645 -0.2
RpL36A (Ribosomal protein L36A): DRSC03055 3.5
l(2)37Cd (lethal (2) 37Cd): DRSC02069 -0.3
CG2269: DRSC06833 -0.4
qkr58E-2 (quaking related 58E-2): DRSC04710 0.9
Pka-R2 (Protein kinase, cAMP-dependent, regulatory subunit type 2): DRSC07509 -0.2
CG18190: DRSC06714 0
Grip84 (Gamma-tubulin ring protein 84): DRSC20248 0
CG13843: DRSC14693 -0.1
Ing3 (Inhibitor of growth family, member 3): DRSC20002 -0.3
GstE10 (Glutathione S transferase E10): DRSC06671 0
yrt (yurt): DRSC16559 -0.3
CG15253: DRSC01871 -0.1
mino (minotaur): DRSC14132 -0.3
CG4942: DRSC10462 -0.2

7 entries already listed, sorted by “z-score, replicate 1”, ascending.
gene	amplicon	z-score, replicate 1
CG6044	DRSC04522	-0.5
alpha-Cat (alpha Catenin)	DRSC11917	-0.3
CG6583	DRSC02972	-0.3
Tpst (Tyrosylprotein sulfotransferase)	DRSC18989	-0.3
CG18666	DRSC02694	-0.2
CG6553	DRSC07002	-0.1
pins (partner of inscuteable)	DRSC17043	0
